This series in a line: peptide synthesis. Conditions: whole synthesis.

The record followed here is US6602852B1 (NST NeuroSurvival Technologies, Ltd., priority 1998, dated 2003).

In the case of “Myristate-GGGKKKKKRFSFKKSFKLSGFSFKKNKKK(Biotin)-OH”, the “final HPLC purity” value came to 91.5%.
Regarding “Myristate-KKKKKRFSFKKSFKLSGFSFKKNKKK (SEQUENCE ID NO. 2)-(biotin)”, the “final HPLC purity” value turned out to be 85.7%.
